Measurements as given in PubChem BioAssay AID2685 (National Center for Advancing Translational Sciences (NCATS), 2010).
The other results are listed elsewhere or left out. Further columns of the screen follow, without active or inactive calls. The list favours compounds with an active or inconclusive main result. Potencies come from curve fits of mixed quality, noted in brackets.

Experiment: qHTS Assay for Lipid Storage Modulators in Drosophila S3 Cells;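 for cell number change: cells counted by Cell Tracker Red CMTPX staining in the red channel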
Conditions: BODIPY lipid droplet fluorescence, 18-24 h; for cell number change: measured here: cell count max response, cells fed with added oleic acid
Summary of the method: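 Drosophila S3 cells loaded with oleic acid (400 uM, as added) and compounds at several concentrations; lipid droplets imaged by 488-nm laser-scanning cytometry, 500–530 nm intensity and object ratio to cell channel. Percent activity normalized to 20 uM Triacsin C.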

[1] = measured here: cell number channel AC50, cells fed with added oleic acid
[2] = measured here: lipid fluorescence (Fed channel) AC50, cells fed with added oleic acid

Q: With `Cc1ccc(S(=O)(=O)NCC2CCC(C(=O)NCc3ccc4c(c3)OCO4)CC2)cc1` (stereo unspecified) as the molecule, how does the cell number change read?
A: 65.3%

Q: And the AC50 [1]?
A: 2.91 µM [rising, partial curve]

Q: Which cell number change does the source give for `CCCn1c(C)nc2cc(Cl)c(N3CCN(c4nc(-c5ccc(C)cc5)cs4)CC3)cc21` here?
A: -2.59%

Q: For `CCOC(=O)CN(C)C(=O)CCc1nnc(-c2ccc(-c3ccccc3)cc2)o1`, which cell number change is on record?
A: 15.5%

Q: Which cell number change does the source give for `Cc1ccc(C(=S)N2CCCCCC2)cc1` here?
A: -17.3%

Q: What about the AC50 [2] of the same molecule?
A: 0.731 µM [rising, full curve]

Q: For `N/C(=N\OC(=O)Cc1ccc(-c2ccccc2)cc1)c1cccc([N+](=O)[O-])c1`, which cell number change is on record?
A: -4.83%

Q: Which AC50 [1] does the source give for `Cc1cc(NC(=O)CSc2nc(-c3cccs3)cc(C(F)(F)F)n2)no1` here?
A: 0.461 µM [rising, single point]

Q: What about the AC50 [2] of the same molecule?
A: 1.16 µM [rising, partial curve]

Q: For `CC(NC(=O)c1ccc(Cl)cc1)C(=O)N1CCCCC1` (stereo unspecified), which cell number change is on record?
A: -4.83%

Q: And the AC50 [1]?
A: 6.51 µM [falling, single point]

Q: For `C[C@@]12C(=O)Nc3cc(F)ccc3C(=O)N1[C@H]1c3ccccc3OC[C@@H]1[C@@H]2c1ccccc1`, which cell number change is on record?
A: 15.4%

Q: What about the AC50 [2] of the same molecule?
A: 0.517 µM [rising, full curve, poor fit]

Q: With `CCOc1ccc(NC(=O)C2CC(=O)NC(N3CCc4ccccc43)=N2)cc1` (stereo unspecified) as the molecule, how does the cell number change read?
A: 18.7%

Q: Which cell number change does the source give for `O=C(CNC(=O)CNC(=O)c1ccc(Cl)cc1Cl)NCc1cccc(Cl)c1` here?
A: 16.2%

Q: Which results are given for `O=C(CCCN1C(=O)c2ccccc2C1=O)OC1CSCC1NC(=O)c1ccccc1` (stereo unspecified)?
A: cell number change: -28.5%; AC50 [1]: 0.116 µM [falling, full curve, poor fit]; AC50 [2]: 7.31 µM [falling, partial curve, poor fit]

Q: For `Cc1ccc(S(=O)(=O)NC(=O)NCc2ccccc2)cc1`, which cell number change is on record?
A: -38.3%

Q: What about the AC50 [1] of the same molecule?
A: 29.1 µM [falling, single point]

Q: And the AC50 [2]?
A: 29.1 µM [falling, single point]

Q: With `O=C(O)C1CCC(c2ccc(-c3ccccc3)cc2)CC1` (stereo unspecified) as the molecule, how does the cell number change read?
A: -1.57%

Q: What about the AC50 [2] of the same molecule?
A: 29.1 µM [rising, single point]

Q: Which cell number change does the source give for `Cc1ccc(-c2nc3ccccc3c(=O)n2NC(=O)c2cccs2)cc1` here?
A: 4.4%

Q: With `CC(C)(C=O)Cc1cc(C(C)(C)C)c(O)c(C(C)(C)C)c1` as the molecule, how does the cell number change read?
A: -34.5%

Q: And the AC50 [1]?
A: 29.1 µM [falling, single point]

Q: What about the AC50 [2] of the same molecule?
A: 29.1 µM [falling, single point]

Q: With `O=C(CSc1n[nH]c(-c2ccccn2)n1)Nc1ccccc1F` as the molecule, how does the cell number change read?
A: -35.5%

Q: And the AC50 [1]?
A: 11.6 µM [falling, single point]

Q: Which results are given for `O=C(NCc1cccc(Cl)c1)c1ccc(CS(=O)Cc2ccccc2Cl)o1` (stereo unspecified)?
A: AC50 [1]: 0.0326 µM [rising, full curve]; AC50 [2]: 5.17 µM [rising, partial curve]

Q: Which results are given for `Nn1cc(-c2ccccc2)nc1SCC(=O)Nc1ccc(S(N)(=O)=O)cc1`?
A: cell number change: 26%; AC50 [2]: 3.26 µM [falling, single point]

Q: Which results are given for `CC(C)C(NS(=O)(=O)c1cccc2nsnc12)C(=O)N1CCCCC1` (stereo unspecified)?
A: cell number change: -39.9%; AC50 [1]: 29.1 µM [falling, single point]; AC50 [2]: 6.51 µM [falling, single point]

Q: With `Cc1cc(C)c2c(N)c(C(=O)Nc3ccccc3Br)sc2n1` as the molecule, how does the cell number change read?
A: -7.01%

Q: What about the AC50 [2] of the same molecule?
A: 18.4 µM [falling, partial curve]

Q: With `C=CCn1c(SCC(=O)N2CCc3ccccc3C2)nnc1-c1ccncc1` as the molecule, how does the cell number change read?
A: 27.3%

Q: And the AC50 [2]?
A: 3.66 µM [rising, single point]

Q: What does the source list for `CC(=O)Nc1sc(C)c(C)c1C(=O)OCC(=O)NCc1ccc(F)cc1`?
A: cell number change: 7.52%; AC50 [2]: 29.1 µM [rising, single point]

Q: With `COc1ccc(OCCNC(=O)c2ccc(C)cc2)cc1` as the molecule, how does the cell number change read?
A: -9.72%

Q: Which cell number change does the source give for `CC(=O)NC12CC3CC(C1)CC(C(=O)OCC(=O)Nc1c(F)cccc1F)(C3)C2` here?
A: -21.4%

Q: What about the AC50 [2] of the same molecule?
A: 0.461 µM [falling, partial curve]

Q: For `O=C(Nc1ccc(NC(=S)NC(=O)c2ccco2)cc1)c1ccccc1`, which cell number change is on record?
A: 57.1%

Q: And the AC50 [1]?
A: 25.9 µM [rising, partial curve]

Q: And the AC50 [2]?
A: 18.4 µM [falling, single point]

Q: With `Cc1cc(C2=CC(C)(c3cc(C)oc3C)Nc3nc(C(F)(F)F)nn32)c(C)o1` (stereo unspecified) as the molecule, how does the cell number change read?
A: -59.7%

Q: And the AC50 [1]?
A: 13 µM [falling, partial curve, poor fit]

Q: And the AC50 [2]?
A: 29.1 µM [falling, single point]

Q: With `NC(=O)CC(NC(=O)Cc1ccc(Br)cc1)c1ccc(N2CCC(Cc3ccccc3)CC2)c([N+](=O)[O-])c1` (stereo unspecified) as the molecule, how does the cell number change read?
A: -22.6%

Q: What about the AC50 [2] of the same molecule?
A: 18.4 µM [falling, single point]

Q: With `COc1ccc(CCN(C)C(=O)CNC(=O)c2ccc3c(c2)OCO3)cc1OC` as the molecule, how does the cell number change read?
A: 1.62%

Q: Which cell number change does the source give for `Cc1cc(C)cc(NC(=O)CSc2nccn2Cc2ccco2)c1` here?
A: 35.2%

Q: And the AC50 [1]?
A: 4.11 µM [rising, full curve]

Q: What about the AC50 [2] of the same molecule?
A: 6.51 µM [rising, full curve, poor fit]

Q: For `CC(SCc1cn2cc(Cl)ccc2n1)C(=O)O` (stereo unspecified), which cell number change is on record?
A: -14.6%

Q: With `COc1ccc(Cl)cc1NC(=O)COC(=O)c1ccc(Cl)nc1` as the molecule, how does the cell number change read?
A: -5.1%

Q: What about the AC50 [2] of the same molecule?
A: 6.51 µM [falling, single point]

Q: Which cell number change does the source give for `Cc1ccc(C)c(N2CCN(C(=O)c3ccc(CSc4nc5ccncc5[nH]4)cc3)CC2)c1` here?
A: -33.9%

Q: And the AC50 [1]?
A: 25.9 µM [falling, single point]

Q: And the AC50 [2]?
A: 2.31 µM [rising, full curve]

Q: With `CSc1ccccc1OCc1cc(C(=O)N2CCN(c3ncccn3)CC2)no1` as the molecule, how does the cell number change read?
A: -11.9%

Q: What about the AC50 [2] of the same molecule?
A: 0.116 µM [rising, full curve, poor fit]

Q: With `COc1ccc(N2C(=O)CC(c3ccc(OC(C)C)cc3)C2=O)cc1` (stereo unspecified) as the molecule, how does the cell number change read?
A: 16.8%

Q: And the AC50 [2]?
A: 29.1 µM [rising, single point]

Q: With `COc1ccc(/C=C2\CN(Cc3ccccc3)C/C(=C\c3ccc(OC)c(O)c3)C2=O)cc1O` as the molecule, how does the cell number change read?
A: 7.66%

Q: For `Cc1ccc(CNC(=O)C2CCC(CNc3c(N4CCC(C)CC4)c(=O)c3=O)CC2)cc1` (stereo unspecified), which cell number change is on record?
A: 6.52%

Q: And the AC50 [2]?
A: 0.206 µM [falling, full curve]

Q: With `CCCn1c(N)c(C(=O)CSc2nnc(C)n2Cc2ccccc2)c(=O)n(C)c1=O` as the molecule, how does the cell number change read?
A: 7.81%

Q: And the AC50 [2]?
A: 0.00461 µM [rising, full curve, poor fit]

Q: With `O=C(OCC(=O)N1CCN(C(=O)c2ccco2)CC1)c1ccccc1OCc1ccccc1` as the molecule, how does the cell number change read?
A: 3.94%

Q: What about the AC50 [2] of the same molecule?
A: 1.84 µM [rising, partial curve, poor fit]

Q: Which cell number change does the source give for `CN(C)c1nc(OCCNC(=O)Nc2ccccc2)nc(N2CCCCC2)n1` here?
A: -23.8%

Q: And the AC50 [2]?
A: 16.4 µM [falling, partial curve]

Q: With `Cn1c(CN2CCCC2)nc2cc(NC(=O)Nc3ccccc3)ccc21` as the molecule, how does the cell number change read?
A: 8.86%

Q: What does the source list for `O=C(/C=C/c1ccccc1)N(Cc1ccc(Cl)cc1)C1CCS(=O)(=O)C1` (stereo unspecified)?
A: cell number change: 32.1%; AC50 [1]: 10.3 µM [rising, partial curve, poor fit]; AC50 [2]: 10.3 µM [rising, partial curve]

Q: Which cell number change does the source give for `O=C(Cc1cccc2ccccc12)OCn1nnc2ccccc2c1=O` here?
A: 0.858%

Q: And the AC50 [1]?
A: 1.3 µM [falling, partial curve]

Q: What about the AC50 [2] of the same molecule?
A: 5.8 µM [falling, single point]

Q: What does the source list for `COc1ccc(C(C)=O)cc1COC(=O)CNC(=O)c1ccc(F)cc1`?
A: cell number change: 2.52%; AC50 [1]: 0.206 µM [falling, full curve, poor fit]

Q: For `CCOC(=O)CCc1c(C(=O)OCC)[nH]c(CC)c1C(=O)OCc1ccccc1`, which cell number change is on record?
A: 37.1%

Q: And the AC50 [1]?
A: 0.326 µM [rising, full curve]

Q: And the AC50 [2]?
A: 0.517 µM [rising, full curve]

Q: What does the source list for `COc1ccc(CN(C(=O)c2nsc(Cl)c2Cl)C(C(=O)NC2CCCC2)c2ccc(C)cc2)cc1` (stereo unspecified)?
A: cell number change: -79.1%; AC50 [1]: 16.4 µM [falling, single point]; AC50 [2]: 23.1 µM [falling, single point]

Q: Which cell number change does the source give for `Cc1ccccc1NC(=O)NCC1CCN(c2ccc(S(=O)(=O)N3CCOCC3)cc2)CC1` here?
A: 16.7%

Q: And the AC50 [2]?
A: 0.58 µM [rising, partial curve]

Q: For `O=C(CSc1ccc(-c2ccco2)nn1)NC1CCCC1`, which AC50 [1] is on record?
A: 4.61 µM [falling, single point]

Q: Which cell number change does the source give for `O=C(OCC(=O)c1ccc[nH]1)C1=COCCO1` here?
A: 18.6%

Q: What about the AC50 [2] of the same molecule?
A: 13 µM [rising, partial curve]

Q: For `COc1cc(C(=O)O/N=C2\CCCc3c2ccc(OC)c3[N+](=O)[O-])cc(OC)c1OC`, which cell number change is on record?
A: 120%

Q: For `CC(=O)NC(=S)NNC(=O)C(c1ccccc1)c1ccccc1`, which cell number change is on record?
A: 8.5%

Q: What does the source list for `CCc1ccccc1NC(=O)C1CC(c2ccc(OC)cc2)=NO1` (stereo unspecified)?
A: cell number change: -12.6%; AC50 [2]: 29.1 µM [rising, single point]

Q: Which cell number change does the source give for `O=C1CCCN1CC1CCCN(Cc2nc(COc3ccccc3)no2)C1` (stereo unspecified) here?
A: 7.08%

Q: And the AC50 [2]?
A: 6.51 µM [falling, single point]

Q: With `FC(F)(F)c1ccc(-n2cn[nH]c2=S)cc1` as the molecule, how does the cell number change read?
A: -13.3%

Q: What about the AC50 [1] of the same molecule?
A: 0.82 µM [falling, full curve, poor fit]

Q: For `Fc1ccc(N2N=C(c3cccs3)CC2c2ccco2)c(F)c1` (stereo unspecified), which cell number change is on record?
A: -43.7%

Q: What about the AC50 [1] of the same molecule?
A: 14.6 µM [falling, single point]

Q: What does the source list for `CN(C(=O)COC(=O)Cc1c[nH]c2ccccc12)c1c(N)n(Cc2ccccc2)c(=O)[nH]c1=O`?
A: cell number change: -10.3%; AC50 [2]: 0.092 µM [falling, full curve, poor fit]

Q: Which cell number change does the source give for `OC1(c2cccc(C(F)(F)F)c2)CCN(c2ncnc3c2[nH]c2ccc(F)cc23)CC1` here?
A: -98.6%

Q: What about the AC50 [1] of the same molecule?
A: 10.3 µM [falling, partial curve]

Q: What about the AC50 [2] of the same molecule?
A: 16.4 µM [falling, partial curve]

Q: For `Cc1cc(-c2ccccc2)nc2[n+]1CCN2C`, which cell number change is on record?
A: -3.97%

Q: And the AC50 [2]?
A: 2.06 µM [falling, partial curve]

Q: For `O=C(CCCSc1nc2ccccc2[nH]1)NCc1ccccc1Cl`, which cell number change is on record?
A: -27.1%

Q: What does the source list for `Cc1ccc(S(=O)(=O)N2CCCCC2CCNC(=O)C(=O)Nc2ccccc2F)cc1` (stereo unspecified)?
A: cell number change: -17.9%; AC50 [2]: 16.4 µM [falling, single point]
